# In patent US12709742B2, “RNA expression modulating or editing method via regulation of Cas13 protein” (Korea Advanced Institute of Science and Technology, priority 2021, dated 2026):
# At least one compound was matched to its structure with a doubt left.
# Test system: Firefly transcript
# Assay: Dual luciferase reporter assay of rapamycin-inducible split Cas13b fragments in HEK293T cells
# Format: cell-based
# Details: split Cas13b FKBP-FRB constructs, 500 nM rapamycin
smiles,measurement,value
"CO[C@H]1C[C@@H]2CC[C@@H](C)[C@@](O)(O2)C(=O)C(=O)N2CCCC[C@H]2C(=O)O[C@H]([C@H](C)C[C@@H]2CC[C@@H](O)[C@H](OC)C2)CC(=O)[C@H](C)/C=C(\C)[C@@H](O)[C@@H](OC)C(=O)[C@H](C)C[C@H](C)/C=C/C=C/C=C/1C [Rapamycin, rapamycin]",Luciferase activity on rapamycin treatment,decreased
